{"source": "the supplement of paper PMC4635364", "note": "Where a name gives a salt, the structure may show the parent alone. The list shows a part of the results. Repeats in this data set agree poorly, so a single value says little.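 ReNCell VM, a human fetal ventral-midbrain neural progenitor line, was differentiated without mitogens. Blinded raters scored images stained for doublecortin (early neurons) or tyrosine hydroxylase (dopaminergic neurons) against untreated wells (0 = no change). Scores were averaged across repeats and both raters, and compounds averaging 2 or more were selected as hits for retesting.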"}
{"system": "ReNCell VM", "test": "neuronal differentiation score (DCX+ cell fraction vs untreated, manual image score) (score (-3 to 3)); higher = more neuronal differentiation", "conditions": "library: LOPAC; 2 uM; 2 weeks"}
{"smiles": "Cc1nnc2ccc(-c3cccc(C(F)(F)F)c3)nn12", "neuronal differentiation score": "inactive: 0"}
{"smiles": "O=C1NCN(c2ccccc2)C12CCN(CC1COc3ccccc3O1)CC2", "note": "(configuration not stated) [Spiroxatrine]", "neuronal differentiation score": "inactive: 0"}
{"smiles": "Oc1ccc2c3c1O[C@H]1c4[nH]c5ccccc5c4C[C@@]4(O)[C@@H](C2)N(CC2CC2)CC[C@]314", "note": "[Naltrindole hydrochloride]", "neuronal differentiation score": "active: 2"}
{"smiles": "COC(=O)N1CCN(C(=O)Cc2ccc(Cl)c(Cl)c2)C(CN2CCCC2)C1", "note": "(configuration not stated)", "neuronal differentiation score": "inactive: 0"}
{"smiles": "CN[C@@H]1C[C@@H](c2ccc(Cl)c(Cl)c2)c2ccccc21", "note": "[Indatraline hydrochloride]", "neuronal differentiation score": "inactive: 0"}
{"smiles": "N.N.[Cl][Pt][Cl]", "note": "[Cisplatin]", "neuronal differentiation score": "inactive: 0"}
{"smiles": "Cc1ncc(CNC(=O)N(CCCl)N=O)c(N)n1", "note": "[Nimustine hydrochloride]", "neuronal differentiation score": "inactive: 1"}
{"smiles": "COC(=O)C1=CCCN(C)C1", "note": "[Arecoline hydrobromide]", "neuronal differentiation score": "inactive: 0"}
{"smiles": "c1ccc(CCCN2CCN(CCOC(c3ccccc3)c3ccccc3)CC2)cc1", "neuronal differentiation score": "inactive: 0"}
{"smiles": "NCC1(CC(=O)O)CCCCC1", "note": "[Gabapentin]", "neuronal differentiation score": "inactive: 0"}
{"smiles": "CC(NC(C)(C)C)C(=O)c1cccc(Cl)c1", "note": "(configuration not stated) [Bupropion hydrochloride]", "neuronal differentiation score": "inactive: -1"}
{"smiles": "Cc1c2ccncc2c(C)c2c1[nH]c1ccccc12", "note": "[Ellipticine]", "neuronal differentiation score": "inactive: 0"}
{"smiles": "CCCN(CCC)[C@@H]1CCc2cccc(O)c2C1", "note": "[R-(+)-8-Hydroxy-DPAT hydrobromide]", "neuronal differentiation score": "inactive: 0"}
{"smiles": "CC(=O)O[C@H]1C[C@@H]2CC[C@@H]3[C@H](CC[C@@]4(C)[C@H]3C[C@H]([N+]3(C)CCCCC3)[C@@H]4OC(C)=O)[C@@]2(C)C[C@@H]1[N+]1(C)CCCCC1", "note": "[Pancuronium bromide]", "neuronal differentiation score": "inactive: 0"}
{"smiles": "COc1ccccc1N1CCNCC1", "note": "[1-(2-Methoxyphenyl)piperazine hydrochloride]", "neuronal differentiation score": "inactive: 0"}
{"smiles": "CCOC(=O)c1ncn2c1[C@@H]1CCCN1C(=O)c1cc(OC)ccc1-2", "neuronal differentiation score": "inactive: 0"}
{"smiles": "CCCN(CCC)C1Cc2cc(OC)c(OC)cc2C1", "neuronal differentiation score": "inactive: 0"}
{"system": "ReNCell VM", "test": "neuronal differentiation score (DCX+ cell fraction vs untreated, manual image score) (score (-3 to 3)); higher = more neuronal differentiation", "conditions": "library: Phytochemical; 2 uM; 2 weeks"}
{"smiles": "c1cncc(C2=NCCC2)c1", "note": "[Myosmine]", "neuronal differentiation score": "inactive: 0"}
{"smiles": "CC(C)C[C@H]1C(=O)N2CCC[C@H]2[C@]2(O)O[C@](NC(=O)[C@@H]3C=C4c5cccc6[nH]c(Br)c(c56)C[C@H]4N(C)C3)(C(C)C)C(=O)N12", "note": "[Bromocryptine mesylate]", "neuronal differentiation score": "inactive: 0"}
{"smiles": "COC(=O)C1=CCCN(C)C1", "note": "[Arecoline hydrobromide]", "neuronal differentiation score": "inactive: 0"}
{"smiles": "Cc1c2ccncc2c(C)c2c1[nH]c1ccccc12", "note": "[Ellipticine]", "neuronal differentiation score": "inactive: 0"}
{"smiles": "CC(C)[C@@]1(NC(=O)[C@@H]2C[C@@H]3c4cccc5[nH]cc(c45)C[C@H]3N(C)C2)O[C@@]2(O)[C@@H]3CCCN3C(=O)[C@H](Cc3ccccc3)N2C1=O", "note": "[Dihydroergocristine mesylate]", "neuronal differentiation score": "inactive: 0"}
